In paper PMC10564737, “Structure-based design of a phosphotyrosine-masked covalent ligand targeting the E3 ligase SOCS2” (Nature Communications, 2023):
Several values for one entry are separate records, joined by “and”; a condition that tells them apart may be missing. Equal entries are not always repeated. The source gives many values for each of these; only a part stands here.

Protein sequences, listed by entry. Tags and fused reporters are not part of them. Residues count along the entry.
UniProt O14508, 32-198: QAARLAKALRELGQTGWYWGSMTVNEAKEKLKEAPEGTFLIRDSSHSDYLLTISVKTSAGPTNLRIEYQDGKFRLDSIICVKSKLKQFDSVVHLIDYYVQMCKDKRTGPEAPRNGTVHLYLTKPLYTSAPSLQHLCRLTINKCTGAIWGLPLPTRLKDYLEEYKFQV

Target: T1, SBC2 (Homo sapiens, UniProt O14508)
T1 construct: SOCS2 (amino acids 32–198); His6 (N, cleaved yes); made in house; host or cells: E. coli BL21(DE3)
Assay: Covalent fluorescence polarization (FP) probe displacement assay
Format: binding
From the text: With the specific covalent modification of Cys111 established, we decided to fully characterize MN551 as a covalent SOCS2 inhibitor. […] (Fig. 2g, h, Supplementary Fig. 9). Due to the covalent nature of the competing inhibitor, a time-dependent reduction in the fraction of protein-bound probe is observed. […] This value illustrates reasonable specificity for a covalent inhibitor, with nonetheless scope for future optimization. In addition to characterizing the kinetic covalency parameters, we have also assessed the stability of the MN551 by monitoring its reactivity (half-life >70 min) with reduced glutathione (GSH) (Supplementary Fig. 10)[35].
To monitor the SBC2-ligand binding kinetics we designed a fluorescein-labeled small-molecule probe - compound 26. The fluorescence polarization (anisotropy) of a threefold serial dilution of 50 µM SBC2 in 10 nM of the probe in 100 mM HEPES pH 7.5, 50 mM NaCl, 0.5 mM TCEP, 2% DMSO was measured to determine the KL (Supplementary Fig. 9A) (BMG Labtech PHERAstar – firmware v1.33). Protein titration and the curves were fitted using GraphPad Prism 9, using one-site fitting models to determine the probe binding constant, KL. Samples were run in triplicate in 384 well plates, using a total volume per well of 16 μL. The bound fraction of the probe is measure using the equation:1 Fb=Af−A/Af−Ab Where,
A time-dependent reduction in probe anisotropy were measured for a 2-fold serial dilution of […] compound MN551 in 10 nM probe +300 μM SBC2. To determine the initial reversible binding affinity, the initial bound fraction of the probe at time = 0, Fbo (the y-intercept in Fb v/s Time plot, Supplementary Fig. 9B) was plotted against MN551 concentration, and the obtained IC50 is then converted to Ki (Supplementary Fig. 9C)[17]. The slope from Fb versus time graph when divided by Fbo gives rate of covalency, kobs. A plot of kobs v/s MN551 concentration using Michaelis–Menten model of GraphPad Prism 9, provides the parameters kinact (maximum potential rate of inactivation) and KI (concentration of MN551 at which kobs = kinact/2) (Supplementary Fig. 9D, E).
The observed first-order rate constant, kobs is related to KI and kinact by the equation:2 kobs=kinactI/KI+I
At [I]«[KI] the above equation is converted to3 […]
The slope from the plot of kobs against concentration of MN551 gives us the covalent efficiency parameter kinact/KI (Supp Fig. 9F)[30],[33].

[1] = MN551 1000 nM, Cycle 9 (40 min)
[2] = MN551 1000 nM, Cycle 10 (45 min)
[3] = MN551 1000 nM, Cycle 11 (50 min)
[4] = MN551 1000 nM, Cycle 12 (55 min)
[5] = MN551 1000 nM, Cycle 16 (75 min), n=1
[6] = MN551 1000 nM, Cycle 17 (80 min), n=1
[7] = MN551 1000 nM, Cycle 18 (85 min), n=1
[8] = MN551 1000 nM; Cycle 7 (30 min)
[9] = MN551 1000 nM; Cycle 8 (35 min)
[10] = MN551 1000 nM; Cycle 9 (40 min)
[11] = MN551 1000 nM; Cycle 10 (45 min)
[12] = MN551 1000 nM; Cycle 11 (50 min)
[13] = MN551 1000 nM; Cycle 13 (60 min); n=1
[14] = MN551 1000 nM; Cycle 14 (65 min); n=1
[15] = MN551 1000 nM; Cycle 15 (70 min); n=1
[16] = MN551 1000 nM; Cycle 16 (75 min); n=1
[17] = MN551 1562.5 nM, Cycle 8 (35 min)
[18] = MN551 1562.5 nM, Cycle 9 (40 min)
[19] = MN551 1562.5 nM, Cycle 10 (45 min)
[20] = MN551 1562.5 nM; Cycle 7 (30 min)
[21] = MN551 1562.5 nM; Cycle 8 (35 min)
[22] = MN551 1562.5 nM; Cycle 9 (40 min)
[23] = MN551 1562.5 nM; Cycle 10 (45 min)
[24] = MN551 1562.5 nM; Cycle 11 (50 min)
[25] = MN551 1562.5 nM; Cycle 12 (55 min); n=1

## O=C(CCl)Nc1cccc(CNC(=O)[C@H](Cc2ccc(OP(=O)(O)O)cc2)NC(=O)Cc2ccc(F)cc2)c1 [MN551]
[1]
  Anisotropy based on Raw Data (485): 248.8 and 246.8 and 245.6
  Fb: 0.6207 and 0.612 and 0.6002
[2]
  Anisotropy based on Raw Data (485): 246.1 and 245.5 and 244.9
  Fb: 0.6298 and 0.6168 and 0.6134
[3]
  Anisotropy based on Raw Data (485): 244.7 and 243.4
  Fb: 0.6093 and 0.5602 and 0.5741
[4]
  Anisotropy based on Raw Data (485): 242.1 and 242.8 and 240.5
  Fb: 0.5902 and 0.5787 and 0.5488
MN551 1000 nM, Cycle 14 (65 min), n=1
  Anisotropy: 231.5 and 232.5 and 228.7
MN551 1000 nM, Cycle 15 (70 min), n=1
  Anisotropy: 229 and 228.9 and 227
[5]
  Anisotropy: 226.1 and 227.9 and 226.8
  Normalised anisotropy (0 nM MN551 = 1, free probe = 0): 0.5335 and 0.5648 and 0.5535
[6]
  Anisotropy: 225 and 226.8 and 221.1
  Anisotropy based on Raw Data (485): 232 and 234.1 and 230.6
  Normalised anisotropy (0 nM MN551 = 1, free probe = 0): 0.5404 and 0.5469 and 0.5176
[7]
  Anisotropy: 224 and 223.3 and 222.4
  Normalised anisotropy (0 nM MN551 = 1, free probe = 0): 0.5382 and 0.5316 and 0.5493
MN551 1000 nM; Cycle 4 (15 min)
  Fb, fraction bound: 0.7519 and 0.7352 and 0.7595
MN551 1000 nM; Cycle 5 (20 min)
  Fb, fraction bound: 0.7373 and 0.7273 and 0.725
MN551 1000 nM; Cycle 6 (25 min)
  Fb, fraction bound: 0.7022 and 0.7159 and 0.7173
[8]
  Anisotropy data 485,520,520: 244.7 and 239.5 and 240.8
  Fb: 0.7698 and 0.7515 and 0.8229
  Fb, fraction bound: 0.6756 and 0.706 and 0.6924
[9]
  Anisotropy: 245.8 and 242.4
  Anisotropy data 485,520,520: 245.9 and 236.7 and 239.8
  Fb: 0.7397 and 0.7682 and 0.7754 and 0.7024 and 0.6846 and 0.6767
[10]
  Anisotropy: 243.4 and 244.2 and 240
  Anisotropy data 485,520,520: 242 and 235.6 and 236
  Fb: 0.7205 and 0.7399 and 0.7699 and 0.686 and 0.6638 and 0.6505
[11]
  Anisotropy: 241.2 and 241.3 and 239.6
  Anisotropy data 485,520,520: 240.4 and 234.3
  Fb: 0.7197 and 0.7244 and 0.7852 and 0.667 and 0.6534 and 0.6566
[12]
  Anisotropy: 237.4 and 239 and 237.6
  Anisotropy data 485,520,520: 237.7 and 229.7 and 230.1
  Fb: 0.6355 and 0.6418 and 0.6543
MN551 1000 nM; Cycle 11 (50 min); column head blank in this cycle
  Fb: 0.6962 and 0.7216 and 0.7551
MN551 1000 nM; Cycle 12 (55 min); n=1
  Anisotropy: 236.1 and 228.9 and 227
MN551 1000 nM; Cycle 13 (60 min)
  Anisotropy: 231.5 and 234.1 and 232.1
[13]
  Anisotropy: 234.8 and 228.6 and 229.2
  Anisotropy based on Raw Data (485): 242.2 and 239.3 and 238.7
[14]
  Anisotropy: 234.6 and 226.2 and 224.7
  Anisotropy based on Raw Data (485): 238.9 and 237.5 and 235.8
[15]
  Anisotropy: 232.3 and 224.1 and 225.6
  Anisotropy based on Raw Data (485): 236 and 234.8 and 234.5
[16]
  Anisotropy: 228.8 and 223.6 and 223.9
  Anisotropy based on Raw Data (485): 234.4 and 230.8 and 231.7
MN551 1000 nM; Cycle 20 (95 min); n=1
  Anisotropy data 485,520,520: 220.8 and 218.3 and 217
MN551 1562.5 nM, Cycle 7 (30 min)
  Fb: 0.6133 and 0.7041 and 0.6631
[17]
  Anisotropy based on Raw Data (485): 246.7 and 248.5 and 246
  Fb: 0.5874 and 0.6844 and 0.667
[18]
  Anisotropy based on Raw Data (485): 246.3 and 246.5 and 240.7
  Fb: 0.5839 and 0.679 and 0.6245
[19]
  Anisotropy based on Raw Data (485): 241.9 and 244.9 and 238.2
  Fb: 0.5501 and 0.6614 and 0.6247
MN551 1562.5 nM, Cycle 13 (60 min), n=1
  Anisotropy: 230.4 and 231.9 and 230.5
MN551 1562.5 nM, Cycle 14 (65 min), n=1
  Anisotropy: 228.7 and 231.5 and 228.5
MN551 1562.5 nM, Cycle 15 (70 min), n=1
  Anisotropy: 225.2 and 227.3 and 225.9
MN551 1562.5 nM, Cycle 16 (75 min), n=1
  Anisotropy: 224.8 and 225.1 and 221.1
MN551 1562.5 nM, Cycle 17 (80 min), n=1
  Anisotropy: 222.9
MN551 1562.5 nM, Cycle 18 (85 min), n=1
  Anisotropy: 217.8 and 219.6 and 219.1
MN551 1562.5 nM; Cycle 4 (15 min)
  Fb, fraction bound: 0.7431 and 0.7546 and 0.7331
MN551 1562.5 nM; Cycle 5 (20 min)
  Fb, fraction bound: 0.7004 and 0.7516 and 0.7303
MN551 1562.5 nM; Cycle 6 (25 min)
  Fb, fraction bound: 0.6793 and 0.7386 and 0.7023
[20]
  Anisotropy data 485,520,520: 246.2 and 249.3 and 251.2
  Fb: 0.7126 and 0.719 and 0.7493
  Fb, fraction bound: 0.6932 and 0.739 and 0.6761
[21]
  Anisotropy: 243.2 and 244.7 and 242.9
  Anisotropy data 485,520,520: 242.8 and 247 and 247.2
  Fb: 0.6667 and 0.6901 and 0.7085 and 0.651 and 0.666 and 0.6554
[22]
  Anisotropy: 242.6 and 242.9 and 240.5
  Anisotropy data 485,520,520: 240.7 and 243.8 and 245.3
  Fb: 0.662 and 0.6743 and 0.6977 and 0.6387 and 0.6597 and 0.6438
[23]
  Anisotropy: 237.9 and 240 and 241.6
  Anisotropy data 485,520,520: 237.7 and 240.6 and 241.5
  Fb: 0.6441 and 0.6528 and 0.666 and 0.5983 and 0.6465 and 0.6605
[24]
  Anisotropy: 235.7 and 239.2 and 235.4
  Anisotropy based on Raw Data (485): 240 and 242.6 and 237.8
MN551 1562.5 nM; Cycle 11 (50 min); n=1
  Anisotropy: 233.7 and 239.5 and 237.9
[25]
  Anisotropy: 232.6 and 237.1 and 235.3
  Anisotropy based on Raw Data (485): 237.4 and 239.9 and 235.4
